Reference: the supplement of paper PMC12819154, “High-throughput peptide-centric local stability assay extends protein–ligand identification to membrane proteins, tissues and bacteria” (Nature Structural & Molecular Biology, 2025)
Some of the results follow. Most values lie at the level of the controls, where differences are scatter.

Sequences of proteins named here, by UniProt entry; tags and fusion partners are left off. A change or cut given only in a name is not applied to a line headed by its entry.
UniProt Q6ZVM7: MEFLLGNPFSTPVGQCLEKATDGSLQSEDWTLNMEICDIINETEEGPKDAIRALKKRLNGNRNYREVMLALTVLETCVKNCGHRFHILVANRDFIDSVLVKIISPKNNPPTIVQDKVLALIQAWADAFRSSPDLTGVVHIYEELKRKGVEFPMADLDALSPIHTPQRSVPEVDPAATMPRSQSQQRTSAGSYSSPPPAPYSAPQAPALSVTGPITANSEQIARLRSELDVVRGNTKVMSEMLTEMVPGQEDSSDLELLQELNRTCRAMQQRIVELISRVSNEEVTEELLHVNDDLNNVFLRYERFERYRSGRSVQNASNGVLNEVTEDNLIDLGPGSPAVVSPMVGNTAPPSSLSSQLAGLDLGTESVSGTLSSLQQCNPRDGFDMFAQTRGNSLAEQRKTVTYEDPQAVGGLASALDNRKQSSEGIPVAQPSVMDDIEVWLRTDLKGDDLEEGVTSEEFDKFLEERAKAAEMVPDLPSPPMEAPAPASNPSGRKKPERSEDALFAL
UniProt Q6ZNW5: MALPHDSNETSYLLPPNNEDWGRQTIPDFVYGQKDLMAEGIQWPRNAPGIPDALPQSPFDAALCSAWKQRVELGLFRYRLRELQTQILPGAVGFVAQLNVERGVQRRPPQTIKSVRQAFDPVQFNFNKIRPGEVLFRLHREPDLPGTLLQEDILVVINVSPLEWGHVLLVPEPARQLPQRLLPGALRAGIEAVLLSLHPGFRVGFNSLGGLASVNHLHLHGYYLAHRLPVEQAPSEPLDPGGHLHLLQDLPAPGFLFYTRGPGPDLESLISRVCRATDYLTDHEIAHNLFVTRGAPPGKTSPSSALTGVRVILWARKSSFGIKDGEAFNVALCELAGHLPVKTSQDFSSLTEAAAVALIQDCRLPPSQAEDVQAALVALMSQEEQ
UniProt Q6ZMI0: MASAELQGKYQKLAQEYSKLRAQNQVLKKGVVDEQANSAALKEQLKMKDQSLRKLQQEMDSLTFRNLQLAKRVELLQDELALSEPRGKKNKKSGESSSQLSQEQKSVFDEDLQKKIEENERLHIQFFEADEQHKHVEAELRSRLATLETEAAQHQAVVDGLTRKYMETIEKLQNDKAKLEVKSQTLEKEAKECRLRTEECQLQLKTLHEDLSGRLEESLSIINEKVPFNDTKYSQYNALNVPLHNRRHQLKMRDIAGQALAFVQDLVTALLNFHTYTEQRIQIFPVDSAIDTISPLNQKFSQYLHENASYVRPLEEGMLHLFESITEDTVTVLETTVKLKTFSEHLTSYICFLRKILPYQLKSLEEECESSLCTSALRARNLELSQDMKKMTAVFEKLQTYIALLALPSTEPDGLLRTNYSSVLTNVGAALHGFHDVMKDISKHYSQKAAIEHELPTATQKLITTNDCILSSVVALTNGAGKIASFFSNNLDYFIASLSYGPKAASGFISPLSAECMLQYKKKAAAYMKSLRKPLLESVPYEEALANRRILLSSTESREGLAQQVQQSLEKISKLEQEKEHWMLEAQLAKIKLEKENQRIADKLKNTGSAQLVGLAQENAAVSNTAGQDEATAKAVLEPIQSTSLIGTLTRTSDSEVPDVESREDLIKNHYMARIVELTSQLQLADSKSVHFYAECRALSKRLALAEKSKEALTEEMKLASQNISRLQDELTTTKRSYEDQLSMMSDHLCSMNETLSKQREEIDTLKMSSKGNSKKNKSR
UniProt Q75LS8: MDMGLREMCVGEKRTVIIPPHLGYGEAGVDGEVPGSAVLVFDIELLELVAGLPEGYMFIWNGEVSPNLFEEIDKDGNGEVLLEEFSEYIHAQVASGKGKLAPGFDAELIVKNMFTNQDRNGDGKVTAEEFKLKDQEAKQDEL
UniProt Q7LBC6: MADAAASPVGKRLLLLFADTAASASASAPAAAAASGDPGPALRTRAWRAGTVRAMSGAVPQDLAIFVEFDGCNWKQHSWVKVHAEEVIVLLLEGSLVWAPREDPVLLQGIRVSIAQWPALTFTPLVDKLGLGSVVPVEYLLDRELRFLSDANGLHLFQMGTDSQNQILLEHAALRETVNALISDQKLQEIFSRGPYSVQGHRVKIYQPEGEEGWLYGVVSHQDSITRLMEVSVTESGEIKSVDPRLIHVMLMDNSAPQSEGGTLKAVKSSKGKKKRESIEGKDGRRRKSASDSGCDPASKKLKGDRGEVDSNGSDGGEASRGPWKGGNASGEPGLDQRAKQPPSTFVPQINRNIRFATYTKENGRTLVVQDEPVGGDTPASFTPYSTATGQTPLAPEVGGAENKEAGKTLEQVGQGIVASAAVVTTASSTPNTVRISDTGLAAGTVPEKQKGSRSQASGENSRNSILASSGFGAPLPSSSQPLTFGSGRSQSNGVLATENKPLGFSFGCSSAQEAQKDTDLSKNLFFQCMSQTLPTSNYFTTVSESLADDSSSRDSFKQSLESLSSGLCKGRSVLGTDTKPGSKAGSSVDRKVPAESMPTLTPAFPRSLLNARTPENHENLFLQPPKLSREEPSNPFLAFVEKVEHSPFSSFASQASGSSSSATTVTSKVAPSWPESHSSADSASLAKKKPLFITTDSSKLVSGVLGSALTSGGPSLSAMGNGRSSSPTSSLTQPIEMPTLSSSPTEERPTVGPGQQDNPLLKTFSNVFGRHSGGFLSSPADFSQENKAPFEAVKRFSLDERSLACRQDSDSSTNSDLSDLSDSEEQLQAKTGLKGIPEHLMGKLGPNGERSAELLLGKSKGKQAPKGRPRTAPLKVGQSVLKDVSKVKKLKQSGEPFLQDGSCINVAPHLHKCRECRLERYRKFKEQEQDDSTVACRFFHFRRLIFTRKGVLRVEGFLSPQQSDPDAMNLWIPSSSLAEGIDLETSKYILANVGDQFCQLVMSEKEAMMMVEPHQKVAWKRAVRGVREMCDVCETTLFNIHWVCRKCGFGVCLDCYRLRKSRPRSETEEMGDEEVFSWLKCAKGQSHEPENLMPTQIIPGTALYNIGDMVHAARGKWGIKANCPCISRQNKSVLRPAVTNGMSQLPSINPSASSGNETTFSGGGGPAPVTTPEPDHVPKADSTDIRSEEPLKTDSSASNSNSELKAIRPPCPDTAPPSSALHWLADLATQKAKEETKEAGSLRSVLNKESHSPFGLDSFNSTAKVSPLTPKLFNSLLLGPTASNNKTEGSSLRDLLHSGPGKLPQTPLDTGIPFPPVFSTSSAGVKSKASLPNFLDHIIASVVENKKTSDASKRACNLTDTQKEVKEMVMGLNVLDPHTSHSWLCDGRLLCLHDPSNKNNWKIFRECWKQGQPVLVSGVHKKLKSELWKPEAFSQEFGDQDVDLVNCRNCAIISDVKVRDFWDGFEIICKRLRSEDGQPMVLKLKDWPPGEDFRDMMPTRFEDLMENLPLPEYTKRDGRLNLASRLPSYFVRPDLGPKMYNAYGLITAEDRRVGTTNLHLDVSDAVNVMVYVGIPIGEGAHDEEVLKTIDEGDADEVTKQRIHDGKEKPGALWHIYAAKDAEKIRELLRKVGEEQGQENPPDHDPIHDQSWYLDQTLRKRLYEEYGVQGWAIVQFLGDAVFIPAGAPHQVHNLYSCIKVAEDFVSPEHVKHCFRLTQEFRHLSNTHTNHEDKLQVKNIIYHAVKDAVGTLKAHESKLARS
UniProt Q6ZRP7: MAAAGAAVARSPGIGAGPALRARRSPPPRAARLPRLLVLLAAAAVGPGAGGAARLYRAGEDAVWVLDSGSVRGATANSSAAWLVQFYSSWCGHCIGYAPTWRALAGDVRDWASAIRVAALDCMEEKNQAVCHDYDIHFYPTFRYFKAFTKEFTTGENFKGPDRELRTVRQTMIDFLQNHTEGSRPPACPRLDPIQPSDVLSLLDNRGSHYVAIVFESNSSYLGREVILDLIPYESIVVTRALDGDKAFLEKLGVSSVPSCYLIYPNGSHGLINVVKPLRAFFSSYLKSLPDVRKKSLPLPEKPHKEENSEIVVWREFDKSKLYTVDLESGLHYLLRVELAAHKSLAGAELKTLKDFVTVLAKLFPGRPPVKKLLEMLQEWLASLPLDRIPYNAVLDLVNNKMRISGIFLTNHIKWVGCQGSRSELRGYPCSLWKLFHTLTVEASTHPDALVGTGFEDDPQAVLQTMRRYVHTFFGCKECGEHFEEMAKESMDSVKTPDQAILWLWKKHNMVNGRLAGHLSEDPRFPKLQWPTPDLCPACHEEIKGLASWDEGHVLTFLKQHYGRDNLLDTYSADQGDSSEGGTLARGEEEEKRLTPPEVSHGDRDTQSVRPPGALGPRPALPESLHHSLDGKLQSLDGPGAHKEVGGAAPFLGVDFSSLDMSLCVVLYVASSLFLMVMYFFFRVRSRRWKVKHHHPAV
UniProt Q7L591: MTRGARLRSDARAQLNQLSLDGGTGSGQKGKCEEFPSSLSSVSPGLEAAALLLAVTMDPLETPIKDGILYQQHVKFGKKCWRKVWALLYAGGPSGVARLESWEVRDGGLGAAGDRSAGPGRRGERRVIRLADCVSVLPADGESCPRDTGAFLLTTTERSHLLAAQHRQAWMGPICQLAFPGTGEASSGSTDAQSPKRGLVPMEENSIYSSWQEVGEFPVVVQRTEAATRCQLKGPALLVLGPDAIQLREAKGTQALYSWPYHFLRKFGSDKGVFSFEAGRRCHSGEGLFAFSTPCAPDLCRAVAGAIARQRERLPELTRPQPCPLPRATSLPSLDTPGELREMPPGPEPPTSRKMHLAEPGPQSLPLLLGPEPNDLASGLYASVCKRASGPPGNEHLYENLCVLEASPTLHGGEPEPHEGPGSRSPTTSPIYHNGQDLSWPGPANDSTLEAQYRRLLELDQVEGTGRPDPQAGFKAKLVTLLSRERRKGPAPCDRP
UniProt Q71SY5: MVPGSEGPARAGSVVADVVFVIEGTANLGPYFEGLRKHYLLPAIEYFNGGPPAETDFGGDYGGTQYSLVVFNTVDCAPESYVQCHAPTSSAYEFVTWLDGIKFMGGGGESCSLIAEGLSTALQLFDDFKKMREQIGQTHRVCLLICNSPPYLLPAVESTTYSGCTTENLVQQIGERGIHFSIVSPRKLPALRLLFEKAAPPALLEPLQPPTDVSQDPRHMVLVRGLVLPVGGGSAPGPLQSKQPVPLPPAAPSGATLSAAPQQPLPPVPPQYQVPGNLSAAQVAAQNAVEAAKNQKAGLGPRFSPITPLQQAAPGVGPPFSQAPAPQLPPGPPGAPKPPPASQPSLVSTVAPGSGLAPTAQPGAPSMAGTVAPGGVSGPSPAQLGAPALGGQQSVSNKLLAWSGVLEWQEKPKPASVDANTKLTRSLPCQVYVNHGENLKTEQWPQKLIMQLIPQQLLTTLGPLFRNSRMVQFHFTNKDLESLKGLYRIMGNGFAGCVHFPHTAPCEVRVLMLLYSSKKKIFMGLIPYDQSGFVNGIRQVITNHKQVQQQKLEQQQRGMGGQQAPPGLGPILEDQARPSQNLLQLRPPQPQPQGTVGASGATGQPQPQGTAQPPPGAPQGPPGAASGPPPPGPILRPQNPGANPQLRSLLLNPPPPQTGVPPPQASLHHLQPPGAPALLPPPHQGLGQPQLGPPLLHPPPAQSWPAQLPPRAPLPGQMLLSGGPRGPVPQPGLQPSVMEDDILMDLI
UniProt Q75QN2, whole entry: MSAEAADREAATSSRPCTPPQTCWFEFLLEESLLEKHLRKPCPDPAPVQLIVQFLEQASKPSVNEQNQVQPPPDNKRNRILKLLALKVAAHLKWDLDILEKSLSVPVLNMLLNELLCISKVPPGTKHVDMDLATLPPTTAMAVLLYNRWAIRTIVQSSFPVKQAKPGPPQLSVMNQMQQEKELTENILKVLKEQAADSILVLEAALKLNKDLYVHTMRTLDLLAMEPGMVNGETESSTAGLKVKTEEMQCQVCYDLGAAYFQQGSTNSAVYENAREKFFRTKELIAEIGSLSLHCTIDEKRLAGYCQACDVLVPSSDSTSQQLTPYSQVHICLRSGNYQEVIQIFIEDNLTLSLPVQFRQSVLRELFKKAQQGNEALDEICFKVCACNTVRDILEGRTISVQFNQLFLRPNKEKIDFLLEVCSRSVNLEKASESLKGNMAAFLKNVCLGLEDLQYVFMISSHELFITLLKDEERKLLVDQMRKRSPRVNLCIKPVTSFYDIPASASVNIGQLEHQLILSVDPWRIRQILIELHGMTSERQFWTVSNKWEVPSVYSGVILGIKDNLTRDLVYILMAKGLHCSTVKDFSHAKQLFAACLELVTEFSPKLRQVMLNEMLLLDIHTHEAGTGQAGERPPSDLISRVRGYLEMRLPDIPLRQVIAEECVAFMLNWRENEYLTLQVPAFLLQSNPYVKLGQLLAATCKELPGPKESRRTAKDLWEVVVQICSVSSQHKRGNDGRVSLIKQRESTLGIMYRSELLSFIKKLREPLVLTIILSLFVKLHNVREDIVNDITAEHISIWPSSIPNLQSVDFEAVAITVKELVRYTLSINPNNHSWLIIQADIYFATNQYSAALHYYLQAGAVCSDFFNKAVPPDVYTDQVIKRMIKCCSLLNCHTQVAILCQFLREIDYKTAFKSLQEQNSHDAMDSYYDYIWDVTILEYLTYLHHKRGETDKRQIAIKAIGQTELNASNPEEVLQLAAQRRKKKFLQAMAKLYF

compound: Cc1nc(Nc2ncc(C(=O)Nc3c(C)cccc3Cl)s2)cc(N2CCN(CCO)CC2)n1 [dasatinib]; experiment: log2 fold change of tryptic peptide abundance, ligand vs vehicle (limited proteolysis) (log2 ratio); higher = more trypsin-susceptible (destabilized); conditions: ligand concentration: 5 uM; sample: K562 cleared lysate

Target | log2 fold change
ADAMTSL4 (peptide sequence: GQGPRPQTSPETLPLYR, peptide start residue: 99) (UniProt Q6UY14) | 0.202
TLK2 (peptide sequence: RKPPAMGQAPPATNEQK, peptide start residue: 345) (UniProt Q86UE8) | 0.0755
TECPR1 (peptide sequence: NATGNSASGLGAGR, peptide start residue: 439) (UniProt Q7Z6L1) | -0.0735
MRPL55 (peptide sequence: MLAMPIDLDTLSPEERR, peptide start residue: 74) (UniProt Q7Z7F7) | 0.22
PHLDB2 (peptide sequence: LREQEMER, peptide start residue: 601) (UniProt Q86SQ0) | -0.164
MOB3B (peptide sequence: TCPVMSGGPK, peptide start residue: 86) (UniProt Q86TA1) | 0.093
RBBP6 (peptide sequence: GVDKDFESSSMK, peptide start residue: 1155) (UniProt Q7Z6E9) | -0.184
TOM1L2 (peptide sequence: GNSLAEQR, peptide start residue: 392) (UniProt Q6ZVM7) | -0.103
UniProt Q6ZWE6 (peptide sequence: KGYLEIRK, peptide start residue: 215) | 0.151
MCM10 (peptide sequence: DCEYCQYHVQAQYK, peptide start residue: 408) (UniProt Q7L590) | -0.597
UniProt Q7Z3I7 (peptide sequence: RTHIGEKPYK, peptide start residue: 460) | 0.173
RASGRP2 (peptide sequence: HSSLIDIDSVPTYK, peptide start residue: 115) (UniProt Q7LDG7) | -0.494
TTC7B (peptide sequence: LNYVEGDYK, peptide start residue: 106) (UniProt Q86TV6) | 0.291
UniProt Q6ZR52 (peptide sequence: SSHLTTHKR, peptide start residue: 301) | -0.0507
C11orf96 (peptide sequence: KSFLQSLECLR, peptide start residue: 394) (UniProt Q7Z7L8) | 0.479
MRPL52 (peptide sequence: QENALKPK, peptide start residue: 105) (UniProt Q86TS9) | 0.222
UniProt Q6ZNW5 (peptide sequence: GPGPDLESLISR, peptide start residue: 261) | 0.262
UniProt Q86UF2 (peptide sequence: GPGNPLDHQITNER, peptide start residue: 1169) | -0.117
UniProt Q6ZMI0 (peptide sequence: QREEIDTLK, peptide start residue: 759) | 0.5

Target | log2 fold change
UniProt Q75LS8 (peptide sequence: NGDGKVTAEEFK, peptide start residue: 548) | 0.482
MARK2 (peptide sequence: VLNHPNIVK, peptide start residue: 106) (UniProt Q7KZI7) | 0.913
SMIM29 (peptide sequence: VVHGWQSGYQHK, peptide start residue: 82) (UniProt Q86T20) | -0.306
ZNF598 (peptide sequence: REEEDREVAAAVR, peptide start residue: 338) (UniProt Q86UK7) | -0.997
CENPQ (peptide sequence: KMEDLTNVSSLLNMER, peptide start residue: 130) (UniProt Q7L2Z9) | -0.122
CREB3L2 (peptide sequence: SEEKALKK, peptide start residue: 290) (UniProt Q70SY1) | 0.336
UniProt Q7LBC6 (peptide sequence: NIIYHAVK, peptide start residue: 1738) | -0.393
MAEA (peptide sequence: LAQPLPMAHCANSR, peptide start residue: 324) (UniProt Q7L5Y9) | 0.125
UniProt Q70EK9 (peptide sequence: SVYTVGLR, peptide start residue: 356) | 0.209
QSOX2 (peptide sequence: VKHHHPAV, peptide start residue: 691) (UniProt Q6ZRP7) | -0.0945
KIF21A (peptide sequence: IEGCHICTSVTPGEPQVFLGKDK, peptide start residue: 25) (UniProt Q7Z4S6) | 0.207
KTN1 (peptide sequence: SGVIQDALKK, peptide start residue: 312) (UniProt Q86UP2) | 0.32
DOK3 (peptide sequence: EMPPGPEPPTSR, peptide start residue: 342) (UniProt Q7L591) | 0.365
UniProt Q6ZMY9 (peptide sequence: VLQEDLGRPVGSSAPR, peptide start residue: 162) | 0.277
MED25 (peptide sequence: LLAWSGVLEWQEKPKPASVDANTK, peptide start residue: 399) (UniProt Q71SY5) | -0.171
DEF8 (peptide sequence: YLALMVSRPVLR, peptide start residue: 338) (UniProt Q6ZN54) | -0.237
UniProt Q86UD0 (peptide sequence: ASADFGAAGSPRPLGR, peptide start residue: 275) | -0.231
PABPN1 (peptide sequence: LKELQNEVEK, peptide start residue: 136) (UniProt Q86U42) | 0.106
INTS8 (peptide sequence: TIVQSSFPVK, peptide start residue: 153) (UniProt Q75QN2) | -0.153

Reprinted at random: 3 records from the list
Target | log2 fold change
UniProt Q6ZMY9 (peptide sequence: VLQEDLGRPVGSSAPR, peptide start residue: 162) | 0.277
CREB3L2 (peptide sequence: SEEKALKK, peptide start residue: 290) (UniProt Q70SY1) | 0.336
QSOX2 (peptide sequence: VKHHHPAV, peptide start residue: 691) (UniProt Q6ZRP7) | -0.0945
